We go through 1 compound from patent US10801879B2, “Magnesium zinc oxide nanostructure modified biosensor and monitoring of response of cell population to an agent using the same” (Rutgers, The State University of New Jersey, priority 2015, dated 2020).

Where two headings read alike, the source gives them in different places.

One test concerns P. aeruginosa. How it is done:
(§1) The sensor was placed inside an incubator at 37° C. while automatically measuring the acoustic spectrum every 15 minutes for 3 hours.

For another test, the system named is S. epidermidis. How it is done:
as §1

On to `O=C(O)c1cn(C2CC2)c2cc(N3CCNCC3)c(F)cc2c1=O` [ciprofloxacin], for which the “Δf plot versus no-drug” value in the test with P. aeruginosa (0.5 MIC, 3 hours, 37° C.) is “not enough to kill the bacteria”; in the test on P. aeruginosa (5 MIC) it was “grew slightly but never reached the same level as the no-drug Δf values”; in the test on P. aeruginosa (10 MIC), “grew slightly but never reached the same level as the no-drug Δf values”; in the test with S. epidermidis (0.5 MIC, 3 hours, 37° C.), “not enough to kill the bacteria”; in the test on S. epidermidis (5 MIC), “grew slightly but never reached the same level as the no-drug Δf values”; in the test on S. epidermidis (10 MIC), “grew slightly but never reached the same level as the no-drug Δf values”. Besides, the entries for the “time at which Δf plot started to taper off and flatten” value in the test with P. aeruginosa (1 MIC) and in the test on S. epidermidis (1 MIC) were 1.5 h and 1 h, respectively.
